Assay results taken from PubChem BioAssay AID1688 (National Center for Advancing Translational Sciences (NCATS), 2009).
Among all 220,000 compounds or so, about 2,400 (1.1%) were called active. This list was built around the results that the source calls inconclusive (neither active nor inactive); the mix of calls is not that of the screen. Calls follow the shape of the dose curve; as a rule, active = well fitted inhibition curve with a large enough effect; inconclusive = small, poorly fitted or top-dose-only effect, or effect the other way; inactive = no such curve, though single readings can be large or run the other way. Where the call is inconclusive, the potency comes from a doubtful curve fit.

Assay: qHTS Multiplex Assay to Identify Dual Action Probes in a Cell Model of Huntington: Aggregate Formation (GFP); also: nearly all actives have a fitted effect of over 60% in size
Details: PC12 HttQ103-GFP aggregates, Acumen cytometry, 40 h; activity change, negative = inhibition: at 46.1 µM (top of the series) unless noted
Excerpt: NIH Chemical Genomics Center [NCGC]
NIH Molecular Libraries Probe Production centers Network [MLPCN]
Assay Submitter (PI): Wei Zheng
Huntington's disease is a neurodegenerative disorder caused by a trinucleotide repeat expansion in Exon 1 of the Huntingtin gene. The CAG trinucleotide encodes glutamine and polyglutamine expansions cause cell death in selective areas of the brain. Huntington polyglutamine repeats have the tendency to form aggregates which are observable in later stages of the disease. The exact nature of the aggregates, whether toxic, protective, or insignificant, is unclear.
A stable PC12 cell line containing a gene fusion of Exon 1 of the Huntingtin gene linked to GFP under the control of the inducible ecdysone promoter were used as the cell-based model of Huntington Disease for high throughput screening. Exon 1 of the Huntingtin gene contained an expansion of 103 polyglutamines (Q103) which, when expressed, caused cell death and distinct, bright GFP aggregates. The amount of cell death and the size and intensity of GFP aggregates increased over time and induction level. The cell death were quantified with a measurement of ATP content in the cells. A maximal 40-50% of cell death was observed when the Huntington gene was induced in this cell line.
We optimized this assay in a homogeneous 1536 well format. A quantitative high throughput screen (qHTS) was conducted on the PC12 cells which were induced to express the toxic fusion construct. Small molecules which reduced aggregate formation were identified bu using a laser scanning cytometer calibrated to detect the aggregates in cell lysates.
PC12 cells stably containing a construct with an ecdysone inducible promoter expressing GFP fused to the exon 1 of HTTQ103 (Huntington protein which containing a 103 ployglutamine expansion) were used.
NCGC Assay Protocol Summary:
Sequence, Parameter, Description
1, Reagent, 5 uL 1500 cells/well 1536 TC treated White clear bottom plate
2, Compound, 23 nL Tebufenozide inducer (100 nM final) to all columns
3, Compound, 23 nL 40 uM to 0.5 nM Libraries
5, Reagent, 5 ul ATPLite cell death assay reagent
6, Detector, Aggregate quantitation by Acumen Explorer
Media consisted of phenol red free DMEM + 5% equine serum (Hyclone # SH30072.03 ), 5% supplemented Bovine Calf Serum (Hyclone # SH30074.03 ), 1x pen/strep, no G418
Acumen Explorer was used to quantitate GFP aggregates using the following criteria: […] laser excitation, 500-530 nm emission, the PMT was set at a voltage of 450 volts, and objects ranging in size of […] in size having a signal of 6 STDEV above background were collected.
Control columns: 1 = DMSO, 2= 2 uM teb dilns (1:1), 4 = 100 nM Teb inducer. Sample columns received 100 nM Teb.
% is scaled to controls: 0 for no effect and ±100 for the full control effect; potency is read from the fitted curve at half-maximal effect.

Structure (SMILES)	activity change, negative = inhibition	Potency
CN(C)CCNc1ncnc2c1cnn2-c1ccc(Cl)cc1	inactive: 0.0961%	–
COc1ccc(-n2cnc3c(sc4nc(N5CCOCC5)c5c(c43)CCCC5)c2=O)cc1	–	inconclusive: 35.5 µM [inhibitor, single point]
Clc1ccc(-n2nnnc2CN2CCCCC2)cc1Cl	–	inconclusive: 35.5 µM [inhibitor, single point]
CC(C)CN(C(=O)CN1CCN(c2ccccc2O)CC1)c1c(N)n(CC(C)C)c(=O)[nH]c1=O	inactive: -3.54%	–
Cc1cc(S(=O)(=O)N2CCN(c3ccc(F)cc3)CC2)c(C)s1	–	inconclusive: 7.08 µM [inhibitor, partial curve]
Cc1nc(Nc2ccc(Cl)c(Cl)c2)sc1C(=O)Nc1ccccc1	–	active: 25.1 µM
O=[N+]([O-])c1ccccc1Oc1cnc2ccccc2n1	–	inconclusive: 5.01 µM [activator, single point]
O=C(CN(C(=O)CCC(=O)Nc1nccs1)c1ccc2c(c1)OCCO2)NCc1ccco1	–	inconclusive: 6.31 µM [inhibitor, single point]
Cc1nn(C(=O)c2ccccc2)c2c1C(=O)CC(C)(C)C2	–	inconclusive: 5.62 µM [activator, single point]
CCCc1c(C)nc2ccccc2c1SCCC#N	–	active: 3.16 µM
O=C(C1CCN(C2CC(=O)N(c3ccc(F)cc3)C2=O)CC1)N1CCOCC1 (stereo not drawn)	–	inconclusive: 0.1 µM [activator, partial curve, poor fit]
COc1cccc2cc(S(=O)(=O)c3ccc(C)cc3)/c(=N/NS(=O)(=O)c3ccc(C)cc3)oc12	–	inconclusive: 2.24 µM [activator, single point]
CCN(CC)c1ccc(-n2c(C)c(C(C)=O)c(C(C)=O)c2C)cc1	–	active: 22.4 µM
Cc1cccc(-n2c(-c3ccco3)n[nH]c2=S)c1	inactive: 14.5%	–
COc1ccc(-n2c(-c3ccc(C)cc3)n[nH]c2=S)cc1	–	inconclusive: 35.5 µM [inhibitor, single point]
O=C1c2ccccc2C(O)(c2ccccc2)N1c1ccncc1 (stereo not drawn)	inactive: 10.3% [at 9.22 µM]	–
CC(C)Cn1c(N)c(C(=O)CSc2ccc3c(c2)OCCO3)c(=O)n(C)c1=O	–	active: 2 µM
Cc1cc(C)c(S(=O)(=O)c2ccccc2C)c(OCC(C)(C)C)n1	inactive: -27.8%	–
N#C/C(=N/O)c1nc(-c2ccc(F)cc2)cs1	–	inconclusive: 14.1 µM [inhibitor, single point]
Cc1ccc(S(=O)(=O)Cn2nnnc2C(CC(C)C)N2CCN(c3ccc(F)cc3)CC2)cc1 (stereo not drawn)	inactive: 0.932%	–
CS(=O)(=O)N1CCN(c2ccc([N+](=O)[O-])c(NCc3ccccc3)c2)CC1	–	inconclusive: 11.2 µM [activator, partial curve, poor fit]
CC(C)C(c1nnnn1C(C)(C)C)N1CCC(Cc2ccccc2)CC1 (stereo not drawn)	inactive: 9.08%	–
COc1ccc(-c2nc(C(N)=O)c3[nH]c(=O)n(-c4cccc(Cl)c4)c3n2)cc1OC	–	inconclusive: 35.5 µM [inhibitor, single point]
CCN(CC)CCC[C@H](C)Nc1c2ccc(Cl)cc2nc2ccc(OC)cc12	–	inconclusive: 35.5 µM [inhibitor, single point]
Cc1cccc(Sc2c(C=O)c3ccccc3n2C)c1	–	inconclusive: 22.4 µM [inhibitor, single point]

Some values from the results shown:
activity change, negative = inhibition with Cc1cccc(-n2c(-c3ccco3)n[nH]c2=S)c1 reads inactive: 14.5%
Potency with COc1ccc(-n2c(-c3ccc(C)cc3)n[nH]c2=S)cc1 reads inconclusive: 35.5 µM [inhibitor, single point]
Potency with N#C/C(=N/O)c1nc(-c2ccc(F)cc2)cs1 reads inconclusive: 14.1 µM [inhibitor, single point]

Fetched one by one from the entries so far, 2 records:
Structure (SMILES)	activity change, negative = inhibition	Potency
COc1cccc2cc(S(=O)(=O)c3ccc(C)cc3)/c(=N/NS(=O)(=O)c3ccc(C)cc3)oc12	–	inconclusive: 2.24 µM [activator, single point]
CC(C)CN(C(=O)CN1CCN(c2ccccc2O)CC1)c1c(N)n(CC(C)C)c(=O)[nH]c1=O	inactive: -3.54%	–

The list continues:

Structure (SMILES)	activity change, negative = inhibition	Potency
COC(=O)c1cccnc1Oc1ccccc1	inactive: -1.99% [at 9.22 µM]	–
CCCCSc1cc(=O)[nH]c(N)n1	inactive: -5.42% [at 9.22 µM]	–
OC(COCc1ccc2c(c1)OCO2)CN1CCN(Cc2ccccc2)CC1 (stereo not drawn)	–	inconclusive: 12.6 µM [inhibitor, single point]
CCOC(=O)C1CCN(C(=O)Cc2c(C(=O)O)n(C)c3ccccc23)CC1	–	inconclusive: 35.5 µM [activator, partial curve]
Cc1ccc(Nc2nnc(C3C(=O)N(C)C4(C)CC3c3cc(Br)ccc3O4)s2)cc1 (stereo not drawn)	–	inconclusive: 35.5 µM [activator, partial curve, poor fit]
COC(=O)c1ccc(/C=N/NC(=O)C(=O)NCc2ccccc2)cc1	–	inconclusive: 35.5 µM [activator, single point]
COc1ccc(/C=C/C(=O)c2cc(F)ccc2OC(=O)c2ccccc2C)cc1OC	–	inconclusive: 31.6 µM [activator, single point]
COCCCNC(=O)c1ccc(Cn2c(=O)c3ccccc3n(Cc3ccccc3C)c2=O)cc1	–	inconclusive: 5.62 µM [activator, single point]
O=C(OCn1ncc(Cl)c(Cl)c1=O)c1ccc(F)cc1	–	inconclusive: 14.1 µM [inhibitor, single point]
O=C(Nc1ccc(Cl)cc1)c1cc(S(=O)(=O)N2CCOCC2)cs1	–	active: 10 µM
CCOC(=O)C1=C(O)/C(=C/c2ccc(-c3ccccc3C(=O)O)o2)SC1=Nc1ccc(C)cc1	–	inconclusive: 15.8 µM [inhibitor, single point]
CC(=O)Nc1ccn(-c2ccccc2)n1	–	inconclusive: 35.5 µM [inhibitor, single point]
C[n+]1c2n(c3ccccc31)N=C(c1ccc(-c3ccccc3)cc1)CS2	–	inconclusive: 5.01 µM [inhibitor, single point]
Cc1nc2ccccc2cc1OCc1ccc(F)cc1	–	inconclusive: 7.94 µM [inhibitor, partial curve]
Cc1ccc(NC2=C(NC(=O)c3ccccc3)C(=O)c3ccccc3C2=O)cc1Cl	–	inconclusive: 35.5 µM [inhibitor, single point]
CCCCn1c(SCc2c(C)noc2C)nc2cc(S(N)(=O)=O)ccc21	–	inconclusive: 2 µM [activator, partial curve]
NS(=O)(=O)c1cccc(NC(=O)CN2CCc3ccccc32)c1	inactive: -2.38%	–
COc1ccc(-n2nnnc2SCC(=O)Nc2cc(OC)c([N+](=O)[O-])cc2C)cc1	–	inconclusive: 35.5 µM [inhibitor, single point]
O=C(Nc1nccs1)c1cccc(N2C(=O)c3cccc4c([N+](=O)[O-])ccc(c34)C2=O)c1	–	inconclusive: 35.5 µM [inhibitor, single point]
Cc1cnnn1-c1cccc([N+](=O)[O-])c1	inactive: 14.7%	–
O=C(CSc1nnc(SCC(=O)NCc2ccc3c(c2)OCO3)s1)NCc1ccc2c(c1)OCO2	inactive: 11.3%	–
FC(F)(F)c1cccc(NCc2cn3cccnc3n2)c1	inactive: -11.7%	–
CCCCn1ccc(=O)c2c(C(F)(F)F)nccc21	–	inconclusive: 35.5 µM [inhibitor, single point]
CCCOCCOC(=O)c1[nH]c2c(c1C)C(=O)CC(c1cc(OC)ccc1OC)C2 (stereo not drawn)	–	inconclusive: 1.78 µM [inhibitor, full curve]
CCOc1ccc(-n2c(C)c(C(=O)OC)c3cc(O)ccc32)cc1	–	inconclusive: 5.62 µM [inhibitor, single point]

Structure (SMILES)	activity change, negative = inhibition	Potency
COc1ccc(/C=N/NC(=O)c2ccncc2)cc1CN1CCN(c2ccc(F)cc2)CC1	inactive: 14%	–
Cc1cc(C)c(C(N)=O)c(Nc2ccc3c(c2)OCCO3)n1	inactive: 4.45%	–
CCN(c1ccccc1)S(=O)(=O)c1ccc(OC)c(OC)c1	inactive: 4.2%	–
Fc1ccc(NC(=S)NNc2ncc(C(F)(F)F)cc2Cl)c(F)c1	–	active: 7.94 µM
O=C(NCCc1c[nH]c2ccccc12)C(=O)NCC(c1cccnc1)N1CCN(c2ccccc2)CC1 (stereo not drawn)	–	active: 3.55 µM
O=C(CNS(=O)(=O)c1ccccc1)Nc1ccc(C(F)(F)F)cc1	inactive: 5.97%	–
COc1cc(NC(=O)c2c(F)c(F)c(F)c(F)c2F)c(OC)cc1Cl	inactive: 19.7%	–
O=C(CC(=O)c1cc(Cl)ccc1O)c1ccccc1	–	active: 11.2 µM
CCCCCc1ccc(OCCOCCn2c[n+](C)c3ccccc32)c(CCCCC)c1	–	active: 11.2 µM
CCCn1c(=O)[nH]c(=O)c2c1nc(-c1ccc(OC)c(Br)c1)n2CCOC	–	inconclusive: 0.562 µM [activator, full curve, poor fit]
O=C(NCc1ccco1)c1ccccc1NS(=O)(=O)c1ccc(Cl)s1	–	active: 17.8 µM
O=c1c2c3c(sc2n(CCN2CCCCC2)c(=O)n1Cc1ccco1)CCCCC3	inactive: -27%	–
S=C1SCN(Cc2ccccc2)CN1Cc1ccccc1	–	inconclusive: 31.6 µM [inhibitor, partial curve, poor fit]
CCOC(=O)C1=C(C)N=C2SCCC(=O)N2C1c1ccc(C(=O)OC)cc1 (stereo not drawn)	inactive: 5.79%	–
O=C(N1CCCCCC1)n1c(Cc2ccccc2)nc2ccccc21	–	inconclusive: 12.6 µM [inhibitor, single point]
O=C(NCCCc1nc2ccccc2[nH]1)c1ccc(F)cc1	–	inconclusive: 0.794 µM [activator, partial curve]
Oc1ccc(/C=N/Nc2ccc(C(F)(F)F)cn2)cc1	inactive: 5.91%	–
COC(=O)CS(=O)(=O)c1ccsc1C(=O)Nc1ccc(F)c(F)c1	inactive: -2.33%	–
COc1ccc2nc(C)c3cc(C)oc3c2c1	–	inconclusive: 22.4 µM [inhibitor, partial curve, poor fit]
O=C(Nc1nc2ccccc2s1)c1ccc(F)cc1	–	inconclusive: 31.6 µM [inhibitor, partial curve, poor fit]
CC1=C(C(=O)OC(C)C)C(c2cccc([N+](=O)[O-])c2)C(C(=O)OC2CN(C(c3ccccc3)c3ccccc3)C2)=C(N)N1 (stereo not drawn)	inactive: -17.7%	–
Cc1nc(SCC(=O)N2CCc3ccccc3C2)c2c(C)c(C)sc2n1	–	active: 14.1 µM
COc1ccc(-c2cc(C(=O)NNC(=S)NC(=O)c3c(-c4ccccc4)noc3C)[nH]n2)cc1	–	inconclusive: 8.91 µM [inhibitor, partial curve]
